Measurements reported in PubChem BioAssay AID330 (DTP/NCI, 2004).
The list shows only some results of the screen, not a fair sample: it is rich in T/C values a quarter to a half above the control, in often repeated tests (any T/C) and in doses without a T/C. Further doses and runs are listed elsewhere. T/C: endpoint of the treated group in % of that of the vehicle group. Some doses have a count of surviving animals in place of a T/C: the source holds a T/C of zero for them, seemingly a mark for toxic or unscored doses. Some survivor counts are full or nearly so, which does not show that the dose was tolerated: survival well below the control is almost never listed, so the zero probably covers shortened survival too. Counts of survivors are from the toxicity check (mostly the fifth day) where no day follows; animals may have died later. Schedules are NCI's codes, read here as Q, the interval in days (D) or hours (H), X, the number of doses. Some entries hold several experiments; their values stand side by side, smallest first. For survival time, this PubChem deposit counts one and a half times the control or more as active, and values a quarter to a half above the control carry no call in these data; other NCI protocols may use other cut-offs. Some T/C values carry the count of animals alive at the toxicity check (mostly the fifth day); where none is given, no animal had died by that day.

Test system: P388 leukemia ip, CD2F1 mice, survival T/C
Experiment: NCI In Vivo Anticancer Drug Screen. Data for tumor model P388 Leukemia (intraperitoneal) in CD2F1 (CDF1) mice
Settings: T/C endpoint: median survival time, higher T/C = longer survival
[1] = dose: 50.0 mg/kg/injection, schedule: Q01DX009 (ip), vehicle: saline with Tween-80
[2] = dose: 200.0 mg/kg/injection, schedule: Q01DX009 (ip), vehicle: saline with Tween-80
[3] = dose: 12.5 mg/kg/injection, schedule: Q01DX005 (ip), vehicle: Klucel (hydroxypropylcellulose) (HPC)
[4] = dose: 100.0 mg/kg/injection, schedule: Q01DX005 (ip), vehicle: Klucel (hydroxypropylcellulose) (HPC)
[5] = dose: 200.0 mg/kg/injection, schedule: Q01DX005 (ip), vehicle: Klucel (hydroxypropylcellulose) (HPC)
[6] = dose: 100.0 mg/kg/injection, schedule: Q01DX001 (ip), vehicle: saline with Tween-80
[7] = dose: 200.0 mg/kg/injection, schedule: Q01DX001 (ip), vehicle: saline with Tween-80
[8] = dose: 200.0 mg/kg/injection, schedule: Q01DX005 (ip), vehicle: saline with Tween-80
[9] = dose: 240.0 mg/kg/injection, schedule: Q01DX005 (ip), vehicle: saline with Tween-80
[10] = dose: 400.0 mg/kg/injection, schedule: Q04DX002 (ip), vehicle: Klucel (hydroxypropylcellulose) (HPC)
[11] = dose: 100.0 mg/kg/injection, schedule: Q01DX005 (ip), vehicle: saline with Tween-80

What does the source list for `O=C(O)c1cc(C(=O)CCCC(=O)c2cc(C(=O)O)c(O)c3ccccc23)c2ccccc2c1O`?
survivor count [1]: 6 of 6; survivor count [2]: 0 of 6

Which results are given for `C[CH2][Sn]([CH2]C)([n]1c2ccccc2c2c(C)c3cnccc3c(C)c21)[n]1c2ccccc2c2c(C)c3cnccc3c(C)c21`?
T/C (dose: 3.12 mg/kg/injection, schedule: Q01DX005 (ip), vehicle: Klucel (hydroxypropylcellulose) (HPC)): 137 and 140 % of control; T/C (dose: 6.25 mg/kg/injection, schedule: Q01DX005 (ip), vehicle: Klucel (hydroxypropylcellulose) (HPC)): 143 % of control [5 of 6 alive]; T/C [3]: 141 % of control; survivor count [3]: 1 of 6; survivor count (dose: 50.0 mg/kg/injection, schedule: Q01DX005 (ip), vehicle: Klucel (hydroxypropylcellulose) (HPC)): 2 of 6; survivor count [4]: 0 of 6; survivor count [5]: 0 of 6

How did the T/C [6] turn out when `ClCCN(CCCN(CCCl)c1ccccc1)c1ccccc1` was run?
Its T/C is 130 and 131 % of control.

What about the T/C [7] of the same compound?
Its T/C is 140 % of control.

What about the survivor count (dose: 800.0 mg/kg/injection, schedule: Q01DX001 (ip), vehicle: saline with Tween-80) of the same compound?
The survivor count was 0 of 6.

Which results are given for `CN1CCN(C)C(=O)C1=O`?
survivor count (dose: 100.0 mg/kg/injection, schedule: Q04DX003 (ip), vehicle: suspension in saline): 2 of 6; survivor count (dose: 200.0 mg/kg/injection, schedule: Q04DX003 (ip), vehicle: suspension in saline): 0 of 6; survivor count (dose: 400.0 mg/kg/injection, schedule: Q04DX003 (ip), vehicle: suspension in saline): 0 of 6

Which survivor count [8] does the source give for `NC(=O)N=Nc1c(F)c(F)c(F)c(F)c1F` here?
The survivor count was 1 of 5.

Which survivor count [9] does the source give for `N#CC(=Nc1cccc(F)c1)C1=C(O)c2ccccc2C1=O` here?
The survivor count was 5 of 6.

With `CC1CN(C(=O)Nc2c(C(C)C)cccc2C(C)C)CC(C)O1` (stereo unspecified) as the compound, how does the survivor count [2] read?
Its survivor count is 6 of 6.

How did the survivor count [9] turn out when `CCCC(=O)c1cc(-c2cc(C(=O)CCC)nc(N)n2)nc(N)n1` was run?
The survivor count was 1 of 6.

Which results are given for `CCC[CH2][Sn]([CH2]CCC)([S]C#N)[S]C#N`?
T/C (dose: 0.75 mg/kg/injection, schedule: Q01DX009 (ip), vehicle: saline with Tween-80): 125 and 126 % of control; T/C (dose: 1.5 mg/kg/injection, schedule: Q01DX009 (ip), vehicle: saline with Tween-80): 127 and 128 % of control; survivor count (dose: 6.0 mg/kg/injection, schedule: Q01DX009 (ip), vehicle: saline with Tween-80): 3 of 6; survivor count (dose: 12.0 mg/kg/injection, schedule: Q01DX009 (ip), vehicle: saline with Tween-80): 0 of 6

Which survivor count [6] does the source give for `C1CCC2(CC1)CSC2` here?
Its survivor count is 0 of 6.

What about the survivor count [7] of the same compound?
Its survivor count is 0 of 6.

And the survivor count (dose: 400.0 mg/kg/injection, schedule: Q01DX001 (ip), vehicle: saline with Tween-80)?
The survivor count was 0 of 6.

`C[C@]12CC[C@H](O)C[C@@]1(O)CC[C@@H]1[C@@H]2CC[C@]2(C)[C@@H](c3ccc(=O)oc3)C[C@H]3O[C@]132` was tested. Which survivor count (dose: 20.0 mg/kg/injection, schedule: Q01DX005 (ip), vehicle: saline + alcohol) did it give?
The survivor count was 2 of 6.

For `CN(C)/C(=C(\CBr)C(=O)c1ccc(-c2ccccc2)cc1)c1ccccc1`, which survivor count [4] is on record?
The survivor count was 0 of 6.

What about the survivor count [5] of the same compound?
Its survivor count is 0 of 6.

`O=C1CN(CO)C(=O)N1CO` was tested. Which T/C [4] did it give?
The T/C was 131 % of control.

What about the T/C [5] of the same compound?
Its T/C is 128 and 135 % of control.

With `CN1CC(=O)NC2C=CN(Cc3c(Cl)cccc3Cl)C=C2C1=O` (stereo unspecified) as the compound, how does the survivor count (dose: 120.0 mg/kg/injection, schedule: Q01DX005 (ip), vehicle: saline with Tween-80) read?
Its survivor count is 6 of 6.

Which T/C [8] does the source give for `CNC(=O)Oc1ccc(Sc2ccc(OC(=O)NC)c(Cl)c2)cc1Cl` here?
Its T/C is 127 % of control.

How did the survivor count (dose: 200.0 mg/kg/injection, schedule: Q04DX003 (ip), vehicle: saline sonified) turn out when `O=C(O)C1C(C(=O)O)C2(Cl)C(Cl)=C(Cl)C1(Cl)C2(Cl)Cl.[Mn]` (stereo unspecified) was run?
The survivor count was 2 of 6.

Which survivor count [8] does the source give for `CCOC(=O)CC1CC(=O)C(C(=O)OCC)C=C1C(=O)OCC` (stereo unspecified) here?
The survivor count was 1 of 5.

Which T/C [10] does the source give for `Clc1ccc(C(Nc2nncs2)Nc2nncs2)c(Cl)c1` here?
The T/C was 130 % of control.

Which results are given for `CC1CN1P(=O)(c1ccccc1)N1CC1C` (stereo unspecified)?
survivor count [11]: 4 of 6; survivor count [8]: 0 of 6; survivor count (dose: 200.0 mg/kg/injection, schedule: Q01DX005 (ip), vehicle: suspension in saline): 0 of 6

What does the source list for `COc1ccc(-c2sc(/N=C/c3ccc(N(C)CCC#N)cc3)c(C#N)c2C)cc1OC`?
survivor count (dose: 50.0 mg/kg/injection, schedule: Q01DX009 (ip), vehicle: Klucel (hydroxypropylcellulose) (HPC)): 6 of 6; survivor count (dose: 100.0 mg/kg/injection, schedule: Q01DX009 (ip), vehicle: Klucel (hydroxypropylcellulose) (HPC)): 6 of 6; survivor count (dose: 200.0 mg/kg/injection, schedule: Q01DX009 (ip), vehicle: Klucel (hydroxypropylcellulose) (HPC)): 6 of 6; survivor count (dose: 400.0 mg/kg/injection, schedule: Q01DX009 (ip), vehicle: Klucel (hydroxypropylcellulose) (HPC)): 6 of 6

Which results are given for `CNC(=O)OCc1cn(-c2ccc(Cl)c(Cl)c2)nc1COC(=O)NC`?
survivor count (dose: 0.78 mg/kg/injection, schedule: Q01DX009 (ip), vehicle: distilled water + Tween-80): 6 of 6; survivor count (dose: 1.56 mg/kg/injection, schedule: Q01DX009 (ip), vehicle: distilled water + Tween-80): 6 of 6; survivor count (dose: 6.25 mg/kg/injection, schedule: Q01DX009 (ip), vehicle: distilled water + Tween-80): 6 of 6; survivor count (dose: 12.5 mg/kg/injection, schedule: Q01DX009 (ip), vehicle: distilled water + Tween-80): 6 of 6; survivor count (dose: 25.0 mg/kg/injection, schedule: Q01DX009 (ip), vehicle: distilled water + Tween-80): 6 of 6; survivor count (dose: 50.0 mg/kg/injection, schedule: Q01DX009 (ip), vehicle: distilled water + Tween-80): 6 of 6; survivor count (dose: 100.0 mg/kg/injection, schedule: Q01DX009 (ip), vehicle: distilled water + Tween-80): 3 of 6; survivor count (dose: 200.0 mg/kg/injection, schedule: Q01DX009 (ip), vehicle: distilled water + Tween-80): 2 of 6 and 4 of 6

Which results are given for `CNc1ncnc2c1ccn2C1OC(CO)C(O)C1O` (stereo unspecified)?
survivor count (dose: 50.0 mg/kg/injection, schedule: Q01DX005 (ip), vehicle: saline with Tween-80): 6 of 6; survivor count [11]: 1 of 6; survivor count [8]: 0 of 6

Which survivor count [9] does the source give for `C=C1C(=O)C(CCCC)=C(CCC)C1O` (stereo unspecified) here?
Its survivor count is 0 of 6.

Which results are given for `Cn1c(=O)c2nsnc2n(C)c1=O`?
T/C (dose: 200.0 mg/kg/injection, schedule: Q04DX002 (ip), vehicle: Klucel (hydroxypropylcellulose) (HPC)): 125 % of control; survivor count [10]: 0 of 6

With `C[CH2][Pb]([Br])([CH2]C)[CH2]C` as the compound, how does the T/C (dose: 25.0 mg/kg/injection, schedule: Q01DX009 (ip), vehicle: saline with Tween-80) read?
Its T/C is 132 % of control.

And the survivor count [1]?
Its survivor count is 5 of 6.

With `CCOC(=C[P+](c1ccccc1)(c1ccccc1)c1ccccc1)OCC` as the compound, how does the survivor count (dose: 6.25 mg/kg/injection, schedule: Q01DX005 (ip), vehicle: water) read?
The survivor count was 4 of 5.

And the survivor count (dose: 12.5 mg/kg/injection, schedule: Q01DX005 (ip), vehicle: water)?
Its survivor count is 6 of 6.

What about the survivor count (dose: 25.0 mg/kg/injection, schedule: Q01DX005 (ip), vehicle: water) of the same compound?
The survivor count was 4 of 6.

And the survivor count (dose: 50.0 mg/kg/injection, schedule: Q01DX005 (ip), vehicle: saline)?
The survivor count was 0 of 6.

And the survivor count (dose: 100.0 mg/kg/injection, schedule: Q01DX005 (ip), vehicle: saline)?
The survivor count was 0 of 6.

What about the survivor count (dose: 200.0 mg/kg/injection, schedule: Q01DX005 (ip), vehicle: saline) of the same compound?
The survivor count was 0 of 6.

`[O-]c1n[n+](Cc2ccc(Cl)cc2)no1` was tested. Which survivor count (dose: 400.0 mg/kg/injection, schedule: Q04DX003 (ip), vehicle: Klucel (hydroxypropylcellulose) (HPC)) did it give?
The survivor count was 6 of 6.
